What all share (assay): two-hybrid; NSMCE3 (WT or mutated) fused to the Gal4 DNA-binding domain, NSMCE1 or NSMCE4 fused to the Gal4-activation domain, coexpressed in yeast; scored on His- plates with 5 mM 3-amino-1,2,4-triazol; 30°C
Experiment [1] concerns the target T1, NSMCE3 (WT) fused to the Gal4 DNA-binding domain (human) (UniProt Q96MG7).
T1 sequence: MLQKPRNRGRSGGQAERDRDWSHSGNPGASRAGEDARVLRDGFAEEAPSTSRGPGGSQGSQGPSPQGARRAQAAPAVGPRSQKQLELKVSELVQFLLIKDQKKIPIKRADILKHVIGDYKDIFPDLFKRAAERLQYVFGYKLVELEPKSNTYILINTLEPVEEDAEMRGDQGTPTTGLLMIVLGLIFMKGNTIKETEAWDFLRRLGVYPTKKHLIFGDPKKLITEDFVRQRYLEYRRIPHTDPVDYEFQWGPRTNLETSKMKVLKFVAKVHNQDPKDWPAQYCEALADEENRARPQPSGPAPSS

Experiment [2] has as its target T2, NSMCE3 Leu264Phe fused to the Gal4 DNA-binding domain (human) (UniProt Q96MG7).
T2 sequence: T1 sequence with L264F

Experiment [3] concerns the target T3, NSMCE3 Pro209Leu fused to the Gal4 DNA-binding domain (human) (UniProt Q96MG7).
T3 sequence: T1 sequence with P209L

Substitutions are numbered along the chain they refer to. These are yes or no findings as the source states them, for the method shown. For part of these data: A result given as binding can be weak or reduced; the word gives no strength. Sequences can lack the tags named with a protein.

With “WT NSMCE4 fused to the Gal4-activation domain”, the figures for the binding entry in experiment [1], in experiment [2] and in experiment [3] were “binds”, “no binding” and “no binding”, respectively.

The record behind these values is publication PMC4966312.
